Results are given in words; binding and its absence hold for the method and conditions named. Some binding calls cover weakened binding; strength is not graded here.

By UniProt entry, the sequences of proteins in these tests, tags left out. Where a name states a change or a piece, a line headed by the entry shows the natural chain unless it says otherwise.
UniProt Q8NFW1: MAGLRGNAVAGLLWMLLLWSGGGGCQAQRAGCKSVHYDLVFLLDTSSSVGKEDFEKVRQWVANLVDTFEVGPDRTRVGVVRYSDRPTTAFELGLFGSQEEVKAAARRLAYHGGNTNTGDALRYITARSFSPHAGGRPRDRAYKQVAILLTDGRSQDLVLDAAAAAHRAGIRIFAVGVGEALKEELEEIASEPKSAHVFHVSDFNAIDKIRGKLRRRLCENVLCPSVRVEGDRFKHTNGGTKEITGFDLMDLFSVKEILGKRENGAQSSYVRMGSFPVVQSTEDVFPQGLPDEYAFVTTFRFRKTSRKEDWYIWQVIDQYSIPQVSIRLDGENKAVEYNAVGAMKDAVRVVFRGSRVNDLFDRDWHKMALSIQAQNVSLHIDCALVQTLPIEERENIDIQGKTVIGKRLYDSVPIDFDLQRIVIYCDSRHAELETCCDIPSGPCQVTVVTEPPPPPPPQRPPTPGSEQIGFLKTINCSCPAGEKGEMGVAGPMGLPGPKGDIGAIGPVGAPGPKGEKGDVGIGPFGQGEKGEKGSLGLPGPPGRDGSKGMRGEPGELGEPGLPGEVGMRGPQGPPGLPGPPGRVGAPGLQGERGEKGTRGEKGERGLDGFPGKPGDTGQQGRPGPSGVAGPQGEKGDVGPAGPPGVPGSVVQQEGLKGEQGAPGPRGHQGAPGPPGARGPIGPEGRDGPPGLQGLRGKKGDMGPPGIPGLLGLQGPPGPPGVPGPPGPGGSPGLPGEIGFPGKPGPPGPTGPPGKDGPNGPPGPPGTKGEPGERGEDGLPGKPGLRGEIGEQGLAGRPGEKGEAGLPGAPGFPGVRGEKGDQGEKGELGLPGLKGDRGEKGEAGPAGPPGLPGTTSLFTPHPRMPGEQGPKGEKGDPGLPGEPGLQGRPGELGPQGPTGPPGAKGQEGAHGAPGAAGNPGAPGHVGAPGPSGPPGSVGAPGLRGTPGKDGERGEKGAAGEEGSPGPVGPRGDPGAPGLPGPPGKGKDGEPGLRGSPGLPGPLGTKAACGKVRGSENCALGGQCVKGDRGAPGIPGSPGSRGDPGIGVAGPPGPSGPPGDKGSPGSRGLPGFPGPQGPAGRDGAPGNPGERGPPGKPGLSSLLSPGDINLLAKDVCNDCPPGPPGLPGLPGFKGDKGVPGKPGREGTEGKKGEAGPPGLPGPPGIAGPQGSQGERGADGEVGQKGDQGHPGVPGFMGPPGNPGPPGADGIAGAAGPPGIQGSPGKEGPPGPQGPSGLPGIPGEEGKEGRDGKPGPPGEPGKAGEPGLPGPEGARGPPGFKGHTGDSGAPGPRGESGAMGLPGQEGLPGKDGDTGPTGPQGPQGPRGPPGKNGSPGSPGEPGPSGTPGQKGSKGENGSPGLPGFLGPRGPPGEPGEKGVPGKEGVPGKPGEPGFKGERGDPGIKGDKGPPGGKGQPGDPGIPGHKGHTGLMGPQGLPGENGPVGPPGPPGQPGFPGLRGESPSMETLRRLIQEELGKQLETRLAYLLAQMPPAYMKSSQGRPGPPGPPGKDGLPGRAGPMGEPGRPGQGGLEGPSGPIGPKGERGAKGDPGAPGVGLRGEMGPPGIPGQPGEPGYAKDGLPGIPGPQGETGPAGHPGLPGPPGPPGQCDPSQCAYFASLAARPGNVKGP

This assay deals with Full-length recombinant collagen XXII made in 293 cells (human) (UniProt Q8NFW1). In words: non-reducing SDS-PAGE mobility (self-association).

In the case of “Full-length recombinant collagen XXII made in 293 cells (from UniProt Q8NFW1 28-1626)”, the binding entry is reported as “binds”.

Values taken from patent publication US7125666.
